According to PubChem BioAssay (NCATS):
This list was built around the results that the source calls inconclusive (neither active nor inactive); the mix of calls is not that of the screen. For part of these data: Potencies beside an inconclusive call are fits to weak or partial responses and may not hold up. For part of these data: A note “side channel” means that the fit belongs to a control or component signal, not to the main read-out. Active and inactive are the calls of the source. Unless noted, calls come from the whole dose curve; as a rule, active = well fitted curve in the direction sought with a large enough effect; inconclusive = small, poorly fitted or top-dose-only effect, or another doubt; inactive = no such curve, though single readings can be large; an effect the other way counts as inactive or inconclusive.

Experiments:
[1] = qHTS of pediatric cancer cell lines to identify multiple opportunities for drug repurposing: Confirmatory screen for RD cells (AID 1347124); conditions: RD rhabdomyosarcoma cell viability; activity change, negative = cytotoxic: at 45.9 µM (top of the series) unless noted;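 note: cells exposed to compound for 48 h before viability readout; nearly all actives have a fitted effect of over 65% in size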
Method in brief: (§1)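 Cells (500-1,000/well) rested 5 h, then received compounds for 48 h; metabolically active cells were measured by CellTiter-Glo luminescence. Final concentrations spanned up to 46 µM (MIPE, 11-point) or 0.59 nM-46 µM (NPC, 8-point) in primary screens, 11-point in follow-ups.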

[2] = qHTS of pediatric cancer cell lines to identify multiple opportunities for drug repurposing: Confirmatory screen for Rh30 cells (AID 1347126); conditions: Rh30 rhabdomyosarcoma cell viability; activity change, negative = cytotoxic: at 45.9 µM (top of the series); note: nearly all actives have a fitted effect of over 55% in size
Method in brief: as §1

[3] = qHTS of pediatric cancer cell lines to identify multiple opportunities for drug repurposing: Confirmatory screen for Saos-2 cells (AID 1347127); note: nearly all actives have a fitted effect of over 60% in size
Method in brief: as §1

[4] = Quantitative High-Throughput drug screen in 47 multiple myeloma cell lines against the NCATS MIPE library collection: AMO1_DSMZ cell viability assay (AID 1918927; note: nearly all actives have a fitted effect of over 30% in size)
Method in brief: (§2)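 Relative luminescence from CellTiter-Glo served as the viability signal, referenced to DMSO-treated (100%) and cell-free medium (0%) controls. Treatment lasted 48 hours at 37C with 500 cells per well.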

[5] = Quantitative High-Throughput drug screen in 47 multiple myeloma cell lines against the NCATS MIPE library collection: KMM1_JCRB cell viability assay (AID 1918960); note: nearly all actives have a fitted effect of over 30% in size
Method in brief: (§3)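 Here, 48 h treatment with MIPE 4.0 agents at 37 °C preceded an ATP luminescence read. Plating density was 500 cells per well.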

[6] = Quantitative High-Throughput drug screen in 47 multiple myeloma cell lines against the NCATS MIPE library collection: H1112_PLB cell viability assay (AID 1918967; note: nearly all actives have a fitted effect of over 30% in size)
Method in brief: as §2

[7] = Quantitative High-Throughput drug screen in 47 multiple myeloma cell lines against the NCATS MIPE library collection: KMS12BM_JCRB cell viability assay (AID 1918971); note: nearly all actives have a fitted effect of over 35% in size
Method in brief: (§4)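 Myeloma cells (500 per well) were exposed to MIPE 4.0 compounds by pin transfer and incubated 48 hours at 37C, 5% CO2. Viability was read as ATP by CellTiter-Glo luminescence, normalised to DMSO (100%) and media-only (0%) wells.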

[8] = tested on: Zika virus NS2B-NS3 protease (unlinked complex); experiment: Confirmatory screen GU AMC qHTS for Zika virus inhibitors (AID 1347153);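 note: enzyme at 25 nM with substrate at 10 µM below its Km of 18.3 µM; nearly all actives have a fitted effect of over 70% in size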
Method in brief: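 Fluorescence change (ex 340/em 450 nm) over 15 min, ~20% substrate conversion, normalized to no-inhibitor and no-enzyme controls, then Hill-fitted. Unlinked protease at 25 nM; AMC peptide 10 µM.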

[9] = Quantitative High-Throughput drug screen in 47 multiple myeloma cell lines against the NCATS MIPE library collection: KMS26_JCRB cell viability assay (AID 1918975); conditions: KMS26 myeloma cells viability, CellTiter-Glo ATP, 48 h; viability (% of DMSO): at 45.8 µM (top of the series); note: nearly all actives have a fitted effect of over 45% in size
Method in brief: as §4

[10] = Quantitative High-Throughput drug screen in 47 multiple myeloma cell lines against the NCATS MIPE library collection: OCIMY1_PLB cell viability assay (AID 1918979); note: nearly all actives have a fitted effect of over 35% in size
Method in brief: (§5)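 Inhibition of viability over 48 h was scored by ATP content (CellTiter-Glo) in 500-cell wells. Zero and full viability were defined by media-only and DMSO-only wells.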

[11] = Quantitative High-Throughput drug screen in 47 multiple myeloma cell lines against the NCATS MIPE library collection: KMS34_JCRB cell viability assay (AID 1918985); note: nearly all actives have a fitted effect of over 40% in size
Method in brief: as §5

[12] = Quantitative High-Throughput drug screen in 47 multiple myeloma cell lines against the NCATS MIPE library collection: SKMM1_PLB cell viability assay (AID 1919863); conditions: SKMM1 myeloma viability, CellTiter-Glo ATP, 48 h; viability: active compounds read low; note: nearly all actives have a fitted effect of over 35% in size
Method in brief: as §5

[13] = Quantitative High-Throughput drug screen in 47 multiple myeloma cell lines against the NCATS MIPE library collection: KMS28BM_JCRB cell viability assay (AID 1919874); note: nearly all actives have a fitted effect of over 35% in size
Method in brief: as §5

[14] = molecular target: Bile acid receptor (Homo sapiens) (UniProt Q96RI1); experiment: qHTS assay for small molecule antagonists of farnesoid X receptor signaling (AID 588526; calls by dose curve; for activity change, negative = inhibition: % is set by controls: 0 for no effect and ±100 for the full control effect); conditions: HEK293T FXR-UAS-bla, beta-lactamase ratio, antagonist mode; activity change, negative = inhibition: at 76.7 µM (top of the series)
Method in brief: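 Beta-lactamase reporter antagonist mode: HEK293T FXR-UAS-bla cells, titrated compound, CDCA stimulation, 16 h 37 C, CCF4 dye 2 h RT. Data normalized to CDCA 50 uM and DMSO; Hill-fit IC50.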

[15] = molecular target: Glucocorticoid receptor (Homo sapiens) (UniProt P04150); experiment: qHTS assay for small molecule antagonists of glucocorticoid receptor signaling (AID 588533; active = well fitted inhibition curve with a large enough effect in the signal ratio, with a control signal flat, not every such curve was filed as active; inconclusive = small, poorly fitted or top-dose-only effect, or effect the other way, or a change in a side signal; the % refers to the signal ratio;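 note: cells stimulated with 2 nM dexamethasone as agonist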; for activity change, negative = inhibition: % is set by controls: 0 for no effect and ±100 for the full control effect); conditions: HeLa MMTV-bla, GRE beta-lactamase ratio, antagonist mode, 18 h; activity change, negative = inhibition: at 76.8 µM (top of the series)
[16] = qHTS of pediatric cancer cell lines to identify multiple opportunities for drug repurposing: Confirmatory screen for control Hh wild type fibroblast cells (AID 1347121); note: nearly all actives have a fitted effect of over 70% in size
Method in brief: as §1

[17] = Quantitative High-Throughput drug screen in 47 multiple myeloma cell lines against the NCATS MIPE library collection: ARP1_JJKsccF8 cell viability assay (AID 1918928; note: nearly all actives have a fitted effect of over 40% in size); conditions: ARP1 myeloma cells viability, CellTiter-Glo ATP, 48 h; viability: at 45.8 µM (top of the series)
Method in brief: as §3

[18] = Quantitative High-Throughput drug screen in 47 multiple myeloma cell lines against the NCATS MIPE library collection: OPM1_PLB cell viability assay (AID 1918989); note: nearly all actives have a fitted effect of over 40% in size
Method in brief: as §5

[19] = Quantitative High-Throughput drug screen in 47 multiple myeloma cell lines against the NCATS MIPE library collection: Karpas620_DSMZ cell viability assay (AID 1918959); note: nearly all actives have a fitted effect of over 30% in size
Method in brief: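 Luminescent ATP measurement with CellTiter-Glo gives viability, scaled between DMSO-only wells (100%) and media-only wells (0%). Cells, 500 per well, faced library compounds for 48 hours at 37C.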

[20] = Quantitative High-Throughput drug screen in 47 multiple myeloma cell lines against the NCATS MIPE library collection: RPMI8226_ATCC cell viability assay (AID 1919871); note: nearly all actives have a fitted effect of over 30% in size
Method in brief: as §5
Potency is the fitted concentration of half-maximal effect.

CCOC(=O)[C@@H](N)Cc1ccc(-c2cc(O[C@H](c3ccc(Cl)cc3-n3ccc(C)n3)C(F)(F)F)nc(N)n2)cc1
active: Potency [4] 9.35 µM | Potency [5] 11.8 µM | Potency [6] 10.5 µM | Potency [7] 20.9 µM
inconclusive: Potency [1] 29.3 µM [cytotoxic, single point] | Potency [2] 32.9 µM [cytotoxic, single point] | Potency [3] 32.9 µM [cytotoxic, single point]

COc1ccc(-c2ccccc2)cc1NS(=O)(=O)c1cc(Cl)cc(Cl)c1O
inconclusive: Potency [8] 6.81 µM [inhibitor, full curve]

FC(F)(F)c1ccc(Nc2nc3ccc(Oc4ccnc(-c5ncc(C(F)(F)F)[nH]5)c4)cc3[nH]2)cc1
inconclusive: Potency [6] 26.4 µM [cytotoxic, single point] | Potency [9] 33.2 µM [cytotoxic, single point] | Potency [10] 33.2 µM [cytotoxic, single point] | Potency [11] 16.6 µM [cytotoxic, partial curve] | Potency [12] 20.9 µM [cytotoxic, partial curve, poor fit] | Potency [13] 23.5 µM [cytotoxic, partial curve]

CCCCCCCCCCCCCC(=O)OC(C)C
inconclusive: activity change, negative = inhibition [14] -0.102%
inactive: Potency [15]

C#C[C@]1(O)CC[C@H]2[C@@H]3CCC4=Cc5oncc5C[C@]4(C)[C@H]3CC[C@@]21C
inconclusive: activity change, negative = inhibition [14] -19.8% | Potency [15] 17.8 µM [inhibitor, partial curve, poor fit]

C=CC(=O)Nc1ccc2ncnc(Nc3ccc(OCc4cccc(F)c4)c(Cl)c3)c2c1
active: Potency [1] 1.47 µM | Potency [17] 0.296 µM | Potency [9] 9.35 µM | Potency [10] 14.8 µM | Potency [18] 0.209 µM | Potency [12] 6.62 µM
inconclusive: Potency [16] 14.7 µM [cytotoxic, partial curve] | Potency [2] 1.04 µM [cytotoxic, full curve]

Cc1cc(C(C)(C)C)c(O)c(C(C)(C)C)c1
inconclusive: Potency [14] 20 µM [side channel, rising, single point] | activity change, negative = inhibition [15] 8.31%

2 compounds picked at random from the list so far:
C=CC(=O)Nc1ccc2ncnc(Nc3ccc(OCc4cccc(F)c4)c(Cl)c3)c2c1
active: Potency [1] 1.47 µM | Potency [17] 0.296 µM | Potency [9] 9.35 µM | Potency [10] 14.8 µM | Potency [18] 0.209 µM | Potency [12] 6.62 µM
inconclusive: Potency [16] 14.7 µM [cytotoxic, partial curve] | Potency [2] 1.04 µM [cytotoxic, full curve]

CCOC(=O)[C@@H](N)Cc1ccc(-c2cc(O[C@H](c3ccc(Cl)cc3-n3ccc(C)n3)C(F)(F)F)nc(N)n2)cc1
active: Potency [4] 9.35 µM | Potency [5] 11.8 µM | Potency [6] 10.5 µM | Potency [7] 20.9 µM
inconclusive: Potency [1] 29.3 µM [cytotoxic, single point] | Potency [2] 32.9 µM [cytotoxic, single point] | Potency [3] 32.9 µM [cytotoxic, single point]

Carrying on:

CCS(=O)(=O)N1CC(CC#N)(n2cc(-c3ncnc4[nH]ccc34)cn2)C1
active: Potency [4] 3.72 µM | Potency [18] 20.9 µM
inconclusive: Potency [17] 33.2 µM [cytotoxic, single point] | Potency [19] 7.43 µM [cytotoxic, single point] | Potency [12] 20.9 µM [cytotoxic, partial curve, poor fit] | Potency [20] 16.6 µM [cytotoxic, partial curve, poor fit]

Cc1nc(N)ncc1-c1nc(N2CCOCC2)c2sc(C(C)(C)O)cc2n1
inconclusive: Potency [16] 6.57 µM [cytotoxic, partial curve] | Potency [19] 0.469 µM [cytotoxic, full curve] | Potency [13] 0.296 µM [cytotoxic, full curve]
active: Potency [4] 1.32 µM | Potency [17] 0.105 µM | Potency [5] 0.332 µM | Potency [7] 8.33 µM | Potency [18] 1.18 µM | Potency [20] 0.264 µM

CN[C@@H]1C[C@H]2O[C@@](C)([C@H]1OC)n1c3ccccc3c3c4c(c5c6ccccc6n2c5c31)C(=O)N[C@H]4O
active: Potency [16] 10.4 µM | Potency [3] 0.585 µM | Potency [10] 0.935 µM | Potency [11] 0.372 µM
inconclusive: Potency [1] 1.85 µM [cytotoxic, full curve, poor fit] | Potency [2] 23.3 µM [cytotoxic, partial curve, poor fit] | Potency [8] 19.2 µM [inhibitor, partial curve, poor fit] | Potency [5] 0.296 µM [cytotoxic, full curve] | Potency [7] 2.35 µM [cytotoxic, partial curve, poor fit]

O=C(O)c1ccc(O)c2ncc(N3CCCN(CCc4cccc5ccccc45)CC3)cc12
active: Potency [8] 49.4 µM

COc1ccc(F)c(F)c1C(=O)c1cnc(NC2CCN(S(C)(=O)=O)CC2)nc1N
active: Potency [19] 2.64 µM | Potency [6] 1.87 µM | Potency [9] 2.64 µM | Potency [11] 1.32 µM | Potency [20] 2.96 µM | Potency [13] 3.32 µM
inconclusive: Potency [3] 2.93 µM [cytotoxic, full curve]
